This is an account of results in US20250122267A1.

Sequences of proteins named here, by UniProt entry; tags and fusion partners are left off. Residues count along the entry.
UniProt P54831, residues 279-390: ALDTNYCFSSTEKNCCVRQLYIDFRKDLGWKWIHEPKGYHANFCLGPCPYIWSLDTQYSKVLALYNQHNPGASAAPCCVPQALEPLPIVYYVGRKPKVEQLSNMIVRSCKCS

In test [1] the target is natural dog TGFb1 in dog serum (dog) (UniProt P54831). In words: in vitro ELISA for TGFb1; supernatant of transfected 293-Hek cells mixed with dog serum; bound TGFb1 is not detected.
The target is the same in test [2]. Put plainly: in vitro ELISA for TGFb1; supernatant of transfected 293-Hek cells mixed with dog serum containing natural dog TGFb1; bound TGFb1 is not detected. A general note: In an ELISA, binding on a coated surface is turned into a signal by an enzyme label.

These are yes or no findings as the source states them, for the method shown. Some entries that bind do so weakly or less than the wild type. Where a sequence is shown, tags or fusion partners need not be part of it.

B1: dog-stgfbr2-fc modified to include the mouse/human secretion signal (Fc fusion)
chain: TNNDMMVTDSNGVIKFPQLCKFCDVRSSTCDNQKSCMSNCSITSICEKPHEVCLAVWRKNDENITLETLCHDPKDTYHGIVLEDAASSKCIMKEKKVLGETFFMCSCSSDECNDYIIFSEEYATNNPDLLLVIFQPKRENGRVPRPPDCPKCPAPEMLGGPSVFIFPPKPKDTLLIARTPEVTCVVVDLDPEDPEVQISWFVDGKQMQTAKTQPREEQFNGTYRVVSVLPIGHQDWLKGKQFTCKVNNKALPSPIERTISKARGQAHQPSVYVLPPSREELSKNTVSLTCLIKDFFPPDIDVEWQSNGQQEPESKYRTTPPQLDEDGSYFLYSKLSVDKSRWQRGDTFICAVMHEALHNHYTQESLSHSPGKGGSGGSDYKDHDGDYKDHDIDYKDDDDK
In the case of B1, the binding entry in test [1] and in test [2] was “binds” in each case.
